What all share (experiment): log2 fold change, soluble protein after heating vs DMSO (PISA); higher = thermal stabilisation; K562 lysate, 10 uM; active = over 0.2 and 3.5 SD of the protein, either way, in both replicates (recomputed)
Compound in experiment [1]: NCC(=O)Nc1ccc(-n2nc(C(F)(F)F)cc2-c2ccc3c(ccc4ccccc43)c2)cc1
The procedure, abridged: (§1)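 The values are log-two fold changes in thermal stability compared with solvent controls and come from duplicates. They were obtained by TMTpro 16plex LC-MS/MS, with channel sums equalised, on the supernatant after 21,000xg for 90 min. That supernatant came from crude K562 extract at 1 mg/mL protein treated with 10 μM compound for 30 min, heated for 3 min across 48°C-58°C, pooled and brought to 0.5% NP-40 at 4°C.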

By UniProt entry, the sequences of proteins in these tests, tags left out. Where a name states a change or a piece, a line headed by the entry shows the natural chain unless it says otherwise.
UniProt Q99496: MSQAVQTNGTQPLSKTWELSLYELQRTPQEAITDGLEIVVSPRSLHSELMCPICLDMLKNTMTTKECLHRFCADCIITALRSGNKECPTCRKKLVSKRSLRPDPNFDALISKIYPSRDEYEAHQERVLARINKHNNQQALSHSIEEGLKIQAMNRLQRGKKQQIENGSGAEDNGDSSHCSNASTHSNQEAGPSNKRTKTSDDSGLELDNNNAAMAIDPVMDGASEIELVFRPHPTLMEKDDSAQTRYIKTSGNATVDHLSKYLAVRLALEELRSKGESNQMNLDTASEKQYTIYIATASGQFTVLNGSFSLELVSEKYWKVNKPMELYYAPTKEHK
UniProt Q5VTR2, whole entry, looked up: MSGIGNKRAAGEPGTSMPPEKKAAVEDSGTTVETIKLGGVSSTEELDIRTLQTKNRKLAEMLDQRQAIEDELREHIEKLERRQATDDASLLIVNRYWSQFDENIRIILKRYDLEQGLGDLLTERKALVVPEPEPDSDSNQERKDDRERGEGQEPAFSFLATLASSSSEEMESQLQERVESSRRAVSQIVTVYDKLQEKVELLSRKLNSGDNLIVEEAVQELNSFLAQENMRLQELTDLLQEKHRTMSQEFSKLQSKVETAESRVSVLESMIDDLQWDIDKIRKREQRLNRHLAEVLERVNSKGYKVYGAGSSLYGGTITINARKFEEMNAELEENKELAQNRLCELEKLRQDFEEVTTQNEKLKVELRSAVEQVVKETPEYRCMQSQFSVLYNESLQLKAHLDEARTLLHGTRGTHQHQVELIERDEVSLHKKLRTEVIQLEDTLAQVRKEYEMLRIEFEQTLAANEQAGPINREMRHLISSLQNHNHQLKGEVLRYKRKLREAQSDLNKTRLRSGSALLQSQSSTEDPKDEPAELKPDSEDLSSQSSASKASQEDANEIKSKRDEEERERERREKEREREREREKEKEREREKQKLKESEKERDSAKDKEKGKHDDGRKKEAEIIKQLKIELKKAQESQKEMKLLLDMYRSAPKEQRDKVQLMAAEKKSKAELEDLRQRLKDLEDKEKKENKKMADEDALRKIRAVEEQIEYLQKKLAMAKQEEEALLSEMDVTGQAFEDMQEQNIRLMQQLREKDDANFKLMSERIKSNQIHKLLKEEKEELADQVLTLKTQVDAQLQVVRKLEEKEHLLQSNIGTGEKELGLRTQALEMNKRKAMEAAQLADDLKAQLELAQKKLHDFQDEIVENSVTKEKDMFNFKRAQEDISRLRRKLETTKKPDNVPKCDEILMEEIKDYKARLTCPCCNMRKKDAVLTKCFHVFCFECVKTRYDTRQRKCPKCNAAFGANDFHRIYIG
UniProt Q5XPI4: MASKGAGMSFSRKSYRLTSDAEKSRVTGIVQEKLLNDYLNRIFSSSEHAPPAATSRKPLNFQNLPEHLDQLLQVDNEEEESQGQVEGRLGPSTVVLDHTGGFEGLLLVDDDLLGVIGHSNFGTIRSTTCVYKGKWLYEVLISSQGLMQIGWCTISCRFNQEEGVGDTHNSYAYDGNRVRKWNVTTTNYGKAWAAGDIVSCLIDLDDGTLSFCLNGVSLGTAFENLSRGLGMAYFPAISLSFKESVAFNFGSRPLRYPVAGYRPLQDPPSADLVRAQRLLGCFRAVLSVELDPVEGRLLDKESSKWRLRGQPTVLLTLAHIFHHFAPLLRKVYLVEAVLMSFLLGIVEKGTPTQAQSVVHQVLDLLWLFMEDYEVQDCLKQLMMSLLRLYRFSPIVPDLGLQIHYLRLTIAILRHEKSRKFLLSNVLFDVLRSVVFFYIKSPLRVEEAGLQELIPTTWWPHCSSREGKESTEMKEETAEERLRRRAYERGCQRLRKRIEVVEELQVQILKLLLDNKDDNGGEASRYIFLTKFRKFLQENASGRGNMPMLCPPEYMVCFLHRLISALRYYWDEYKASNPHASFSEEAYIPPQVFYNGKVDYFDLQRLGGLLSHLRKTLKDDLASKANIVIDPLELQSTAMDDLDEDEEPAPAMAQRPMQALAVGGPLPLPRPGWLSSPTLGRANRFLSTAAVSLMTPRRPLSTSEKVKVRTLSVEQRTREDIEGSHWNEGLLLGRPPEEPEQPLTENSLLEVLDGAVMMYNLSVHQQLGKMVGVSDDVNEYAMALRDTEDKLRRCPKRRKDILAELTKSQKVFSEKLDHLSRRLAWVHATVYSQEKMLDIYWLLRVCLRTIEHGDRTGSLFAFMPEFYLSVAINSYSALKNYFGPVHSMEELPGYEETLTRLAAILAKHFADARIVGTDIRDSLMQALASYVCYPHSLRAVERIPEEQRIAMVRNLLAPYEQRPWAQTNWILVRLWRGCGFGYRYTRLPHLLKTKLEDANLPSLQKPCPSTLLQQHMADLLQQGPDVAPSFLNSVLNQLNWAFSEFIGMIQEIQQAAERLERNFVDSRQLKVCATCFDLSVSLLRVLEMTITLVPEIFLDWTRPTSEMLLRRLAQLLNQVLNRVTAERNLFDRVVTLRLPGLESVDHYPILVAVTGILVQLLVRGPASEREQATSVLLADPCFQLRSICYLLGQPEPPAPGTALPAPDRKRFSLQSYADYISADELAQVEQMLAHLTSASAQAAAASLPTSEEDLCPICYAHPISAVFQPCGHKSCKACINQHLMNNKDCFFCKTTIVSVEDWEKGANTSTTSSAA
UniProt O43353, whole entry, looked up: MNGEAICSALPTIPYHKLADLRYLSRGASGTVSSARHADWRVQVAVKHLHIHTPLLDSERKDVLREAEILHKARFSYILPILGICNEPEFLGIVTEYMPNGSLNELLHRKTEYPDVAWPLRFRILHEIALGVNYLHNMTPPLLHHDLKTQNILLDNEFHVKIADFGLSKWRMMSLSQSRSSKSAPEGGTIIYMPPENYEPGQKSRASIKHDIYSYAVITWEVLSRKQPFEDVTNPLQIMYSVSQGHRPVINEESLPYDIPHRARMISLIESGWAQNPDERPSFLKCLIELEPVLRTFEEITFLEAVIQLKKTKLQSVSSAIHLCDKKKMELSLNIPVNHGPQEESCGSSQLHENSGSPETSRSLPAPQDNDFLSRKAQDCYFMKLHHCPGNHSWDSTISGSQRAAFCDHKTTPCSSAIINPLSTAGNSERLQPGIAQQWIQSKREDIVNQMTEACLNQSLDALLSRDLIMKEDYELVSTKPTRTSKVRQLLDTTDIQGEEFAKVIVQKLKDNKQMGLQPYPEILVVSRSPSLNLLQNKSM
UniProt Q969K3: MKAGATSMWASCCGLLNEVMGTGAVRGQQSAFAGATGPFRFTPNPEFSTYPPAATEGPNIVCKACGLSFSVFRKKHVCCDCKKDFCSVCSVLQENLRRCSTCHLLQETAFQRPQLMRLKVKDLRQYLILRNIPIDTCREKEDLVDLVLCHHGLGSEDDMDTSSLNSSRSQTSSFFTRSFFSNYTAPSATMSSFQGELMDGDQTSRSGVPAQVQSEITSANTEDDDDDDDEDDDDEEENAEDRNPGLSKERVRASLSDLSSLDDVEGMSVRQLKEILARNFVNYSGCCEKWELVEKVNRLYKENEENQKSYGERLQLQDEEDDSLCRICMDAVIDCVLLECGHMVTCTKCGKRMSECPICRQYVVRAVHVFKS
UniProt Q96DB5: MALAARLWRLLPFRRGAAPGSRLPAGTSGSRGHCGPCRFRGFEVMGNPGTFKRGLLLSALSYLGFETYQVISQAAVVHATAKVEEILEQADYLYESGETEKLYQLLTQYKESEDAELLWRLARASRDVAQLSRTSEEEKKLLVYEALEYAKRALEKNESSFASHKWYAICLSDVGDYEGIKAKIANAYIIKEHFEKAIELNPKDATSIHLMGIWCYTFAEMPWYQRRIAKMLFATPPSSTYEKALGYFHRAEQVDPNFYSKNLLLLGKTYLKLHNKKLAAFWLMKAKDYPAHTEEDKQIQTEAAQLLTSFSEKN
UniProt P35244: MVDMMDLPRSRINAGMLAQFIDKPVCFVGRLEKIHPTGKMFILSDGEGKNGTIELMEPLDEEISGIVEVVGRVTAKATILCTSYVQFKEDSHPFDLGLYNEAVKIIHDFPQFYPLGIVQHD
UniProt Q9UBS8: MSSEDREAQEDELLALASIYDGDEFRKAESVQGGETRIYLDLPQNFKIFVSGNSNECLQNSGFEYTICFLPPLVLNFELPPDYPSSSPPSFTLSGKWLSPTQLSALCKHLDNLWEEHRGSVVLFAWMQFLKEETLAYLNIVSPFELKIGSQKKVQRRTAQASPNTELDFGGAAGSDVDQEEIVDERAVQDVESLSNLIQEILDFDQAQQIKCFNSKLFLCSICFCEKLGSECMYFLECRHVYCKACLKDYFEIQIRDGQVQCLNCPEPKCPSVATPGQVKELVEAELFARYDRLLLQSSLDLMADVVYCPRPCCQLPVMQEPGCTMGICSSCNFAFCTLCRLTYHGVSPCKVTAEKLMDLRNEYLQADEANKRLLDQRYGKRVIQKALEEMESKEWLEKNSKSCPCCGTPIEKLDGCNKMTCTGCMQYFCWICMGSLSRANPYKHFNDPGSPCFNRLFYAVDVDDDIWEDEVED
UniProt Q8TDP1: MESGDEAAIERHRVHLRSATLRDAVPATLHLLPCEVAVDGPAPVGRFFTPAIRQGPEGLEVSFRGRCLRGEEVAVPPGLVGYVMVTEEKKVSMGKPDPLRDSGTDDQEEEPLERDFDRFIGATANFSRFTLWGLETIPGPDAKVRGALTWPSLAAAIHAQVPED
UniProt Q5TBB1: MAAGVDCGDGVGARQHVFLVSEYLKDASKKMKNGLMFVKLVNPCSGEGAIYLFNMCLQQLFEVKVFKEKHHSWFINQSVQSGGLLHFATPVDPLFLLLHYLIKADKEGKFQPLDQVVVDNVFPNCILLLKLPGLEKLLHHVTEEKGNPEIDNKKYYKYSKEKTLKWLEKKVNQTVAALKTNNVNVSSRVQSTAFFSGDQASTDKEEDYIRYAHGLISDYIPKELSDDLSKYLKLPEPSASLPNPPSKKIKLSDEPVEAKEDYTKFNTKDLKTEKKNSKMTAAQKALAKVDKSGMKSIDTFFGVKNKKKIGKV
UniProt P61586, whole entry, looked up: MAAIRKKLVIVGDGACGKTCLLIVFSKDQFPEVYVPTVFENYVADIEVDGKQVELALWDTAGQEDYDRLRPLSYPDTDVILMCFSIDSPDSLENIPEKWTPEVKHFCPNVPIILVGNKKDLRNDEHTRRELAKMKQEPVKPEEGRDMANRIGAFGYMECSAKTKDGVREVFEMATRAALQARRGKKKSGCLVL
UniProt Q15287: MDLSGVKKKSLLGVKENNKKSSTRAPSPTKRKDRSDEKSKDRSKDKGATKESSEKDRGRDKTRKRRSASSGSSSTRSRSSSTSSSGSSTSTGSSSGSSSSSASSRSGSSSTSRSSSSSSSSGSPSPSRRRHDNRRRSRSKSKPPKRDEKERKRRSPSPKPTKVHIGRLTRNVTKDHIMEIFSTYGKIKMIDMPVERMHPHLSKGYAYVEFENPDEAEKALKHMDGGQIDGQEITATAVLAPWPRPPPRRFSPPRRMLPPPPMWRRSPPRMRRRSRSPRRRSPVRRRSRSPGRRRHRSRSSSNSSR
UniProt O15541: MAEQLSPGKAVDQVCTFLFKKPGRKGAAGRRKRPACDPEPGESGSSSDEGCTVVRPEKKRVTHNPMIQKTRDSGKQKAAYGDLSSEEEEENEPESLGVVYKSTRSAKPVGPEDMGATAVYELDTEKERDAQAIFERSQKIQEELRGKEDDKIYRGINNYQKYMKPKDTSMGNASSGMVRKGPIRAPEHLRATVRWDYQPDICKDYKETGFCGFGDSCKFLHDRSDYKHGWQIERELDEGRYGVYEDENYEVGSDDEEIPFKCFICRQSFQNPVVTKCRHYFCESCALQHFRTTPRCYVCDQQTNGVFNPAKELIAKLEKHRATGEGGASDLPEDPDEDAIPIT
UniProt Q96E14: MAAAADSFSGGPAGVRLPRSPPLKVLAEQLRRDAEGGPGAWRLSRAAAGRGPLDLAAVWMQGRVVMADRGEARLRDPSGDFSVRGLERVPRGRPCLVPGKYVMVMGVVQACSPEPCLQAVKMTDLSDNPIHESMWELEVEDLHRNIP
UniProt P60602: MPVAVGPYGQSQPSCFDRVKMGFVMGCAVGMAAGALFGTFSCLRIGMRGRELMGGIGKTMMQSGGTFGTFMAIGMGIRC
UniProt P34096: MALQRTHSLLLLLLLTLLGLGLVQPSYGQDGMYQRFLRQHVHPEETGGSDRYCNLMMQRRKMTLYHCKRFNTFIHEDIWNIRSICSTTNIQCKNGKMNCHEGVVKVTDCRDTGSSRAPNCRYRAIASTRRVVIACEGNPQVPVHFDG

Compound in experiment [2]: O=C(CCCCCCC(=O)Nc1ccccc1)NO [vorinostat]
The procedure, abridged:
as §1

Compound in experiment [3]: O=C(O)c1ccc2c(c1)nc(Nc1cccc(Cl)c1)c1ccncc12 [silmitasertib]
The procedure, abridged:
as §1

Compound in experiment [4]: O=C1NC(=O)C(c2cnc3ccccn23)=C1c1cn2c3c(cc(F)cc13)CN(C(=O)N1CCCCC1)CC2
The procedure, abridged:
as §1

Compound in experiment [5]: c1cn2cc(-c3ccc4cn[nH]c4c3)nc(Nc3ccc(N4CCOCC4)cc3)c2n1 [entospletinib]
The procedure, abridged: as §1

Results on 25 targets are retold here after the supplement of paper PMC10849652.

The other results are listed elsewhere or left out.

Consider RPL23A (UniProt P62750), for which the log2 fold change was inactive: 0.017 in experiment [1]; inactive: 0.162 in experiment [2]; inactive: -0.029 in experiment [3]; inactive: 0.009 in experiment [4]; inactive: 0.02 in experiment [5].
Regarding RNF2 (UniProt Q99496), the log2 fold change is inactive: -0.015 in experiment [1]; inactive: -0.037 in experiment [2]; inactive: 0.021 in experiment [3]; inactive: 0.008 in experiment [4]; inactive: -0.033 in experiment [5].
RPL26 (UniProt P61254): the log2 fold change in experiment [1] is inactive: -0.008; in experiment [2], inactive: 0.07; in experiment [3], inactive: 0.104; in experiment [4] it was inactive: 0.082; in experiment [5], inactive: -0.076.
As for RNF20 (UniProt Q5VTR2), the log2 fold change in experiment [1] was inactive: 0.004; in experiment [2], inactive: -0.055; in experiment [3], inactive: 0.005; in experiment [4], inactive: 0.001; in experiment [5], inactive: 0.06.
As to RPL3 (UniProt P39023), the log2 fold change was inactive: -0.002 in experiment [1]; inactive: 0.064 in experiment [2]; inactive: 0.011 in experiment [3]; inactive: 0.01 in experiment [4]; inactive: 0.009 in experiment [5].
Regarding RPL19 (UniProt P84098), the log2 fold change in experiment [1] was inactive: -0.041; in experiment [2], inactive: 0.069; in experiment [3] it was inactive: 0.031; in experiment [4], inactive: 0.036; in experiment [5], inactive: 0.007.
RNF123 (UniProt Q5XPI4): the log2 fold change in experiment [1] is inactive: 0.014; in experiment [2], active: -0.385; in experiment [3] it was inactive: -0.016; in experiment [4] it was inactive: -0.002; in experiment [5], inactive: 0.
As to RIPK2 (UniProt O43353), the log2 fold change is inactive: 0 in experiment [1]; inactive: -0.054 in experiment [2]; inactive: -0.023 in experiment [3]; inactive: 0.049 in experiment [4]; inactive: -0.06 in experiment [5].
Regarding RNF34 isoform 2 (UniProt Q969K3), the log2 fold change in experiment [1] was inactive: -0.085; in experiment [2] it was inactive: -0.159; in experiment [3], inactive: 0.051; in experiment [4] it was inactive: 0.046; in experiment [5], inactive: 0.058.
As to RPL26L1 (UniProt Q9UNX3), the log2 fold change in experiment [1] is inactive: -0.03; in experiment [2] it was inactive: 0.131; in experiment [3], inactive: 0.017; in experiment [4], inactive: 0.016; in experiment [5] it was inactive: 0.009.
RMDN1 (UniProt Q96DB5): the log2 fold change was inactive: -0.005 in experiment [1]; inactive: 0.105 in experiment [2]; inactive: 0.022 in experiment [3]; inactive: -0.017 in experiment [4]; inactive: 0.006 in experiment [5].
For RPL13 (UniProt P26373), the log2 fold change was inactive: 0.002 in experiment [1]; inactive: 0.129 in experiment [2]; inactive: 0.016 in experiment [3]; inactive: 0.011 in experiment [4]; inactive: 0 in experiment [5].
For the target RPA3 (UniProt P35244), the log2 fold change was inactive: -0.118 in experiment [1]; inactive: 0.097 in experiment [2]; inactive: -0.011 in experiment [3]; inactive: -0.032 in experiment [4]; inactive: 0.032 in experiment [5].
For the target RNF14 (UniProt Q9UBS8), the log2 fold change in experiment [1] was inactive: 0; in experiment [2], inactive: -0.027; in experiment [3], inactive: -0.013; in experiment [4], inactive: -0.011; in experiment [5], inactive: -0.03.
In the case of RNASEH2C (UniProt Q8TDP1), the log2 fold change is inactive: 0.019 in experiment [1]; inactive: -0.066 in experiment [2]; inactive: 0.004 in experiment [3]; inactive: -0.075 in experiment [4]; inactive: -0.015 in experiment [5].
The like results for RPL10 (UniProt F8W7C6) were, in that order, inactive: 0.052, inactive: -0.037, inactive: 0.012, inactive: 0.013 and inactive: -0.009.
As to RPL27A (UniProt P46776), the log2 fold change in experiment [1] is inactive: -0.002; in experiment [2], inactive: -0.009; in experiment [3], inactive: 0.039; in experiment [4], inactive: 0.021; in experiment [5] it was inactive: 0.012.
For RPL30 (UniProt P62888), the log2 fold change in experiment [1] is inactive: 0.002; in experiment [2], inactive: 0.067; in experiment [3] it was inactive: 0.028; in experiment [4], inactive: -0.019; in experiment [5], inactive: 0.017.
The like results for RNASEH2B (UniProt Q5TBB1) were, in that order, inactive: -0.016, active: -0.377, inactive: 0.054, inactive: -0.064 and inactive: 0.011.
Consider RHOA (UniProt P61586), for which the log2 fold change in experiment [1] is inactive: 0.03; in experiment [2] it was inactive: 0.064; in experiment [3] it was inactive: -0.009; in experiment [4], inactive: 0; in experiment [5], inactive: 0.022.
As for RNPS1 (UniProt Q15287), the log2 fold change in experiment [1] is inactive: -0.014; in experiment [2], inactive: 0.02; in experiment [3], inactive: -0.093; in experiment [4], inactive: -0.012; in experiment [5] it was inactive: 0.009.
With RNF113A (UniProt O15541), the log2 fold change was inactive: 0.009 in experiment [1]; inactive: -0.02 in experiment [2]; inactive: -0.03 in experiment [3]; inactive: -0.004 in experiment [4]; inactive: 0.02 in experiment [5].
The like results for RMI2 (UniProt Q96E14) were, in that order, inactive: -0.008, active: -0.586, inactive: 0.092, inactive: 0.041 and inactive: -0.01.
Regarding ROMO1 (UniProt P60602), the log2 fold change in experiment [1] is inactive: -0.049; in experiment [2] it was inactive: 0.063; in experiment [3], inactive: -0.012; in experiment [4], inactive: -0.067; in experiment [5], inactive: -0.06.
The like results for RNASE4 (UniProt P34096) were, in that order, inactive: -0.055, inactive: 0.151, inactive: -0.049, inactive: -0.16 and inactive: -0.05.
